From PMC11672271

By UniProt entry, the sequences of proteins in these tests, tags left out.
UniProt P42227: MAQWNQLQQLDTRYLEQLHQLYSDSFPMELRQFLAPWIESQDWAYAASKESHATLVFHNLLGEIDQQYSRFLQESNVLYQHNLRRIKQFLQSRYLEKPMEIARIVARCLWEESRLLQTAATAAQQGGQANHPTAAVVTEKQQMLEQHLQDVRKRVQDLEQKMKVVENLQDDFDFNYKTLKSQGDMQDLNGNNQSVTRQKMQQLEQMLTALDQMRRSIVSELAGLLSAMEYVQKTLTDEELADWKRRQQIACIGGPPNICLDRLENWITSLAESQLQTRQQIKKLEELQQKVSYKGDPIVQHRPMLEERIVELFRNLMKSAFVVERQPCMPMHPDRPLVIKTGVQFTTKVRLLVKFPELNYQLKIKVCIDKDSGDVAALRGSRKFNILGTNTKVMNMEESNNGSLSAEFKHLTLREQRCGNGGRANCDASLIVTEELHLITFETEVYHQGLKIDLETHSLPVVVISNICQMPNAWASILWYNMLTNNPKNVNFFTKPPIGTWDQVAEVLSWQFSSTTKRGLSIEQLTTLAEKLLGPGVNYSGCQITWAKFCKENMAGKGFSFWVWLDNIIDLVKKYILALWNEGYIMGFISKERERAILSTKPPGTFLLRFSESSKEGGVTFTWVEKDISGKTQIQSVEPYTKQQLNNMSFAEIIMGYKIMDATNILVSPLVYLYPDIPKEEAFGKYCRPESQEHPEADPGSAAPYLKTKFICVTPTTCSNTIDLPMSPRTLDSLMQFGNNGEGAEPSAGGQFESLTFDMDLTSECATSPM
UniProt A6H5Z3: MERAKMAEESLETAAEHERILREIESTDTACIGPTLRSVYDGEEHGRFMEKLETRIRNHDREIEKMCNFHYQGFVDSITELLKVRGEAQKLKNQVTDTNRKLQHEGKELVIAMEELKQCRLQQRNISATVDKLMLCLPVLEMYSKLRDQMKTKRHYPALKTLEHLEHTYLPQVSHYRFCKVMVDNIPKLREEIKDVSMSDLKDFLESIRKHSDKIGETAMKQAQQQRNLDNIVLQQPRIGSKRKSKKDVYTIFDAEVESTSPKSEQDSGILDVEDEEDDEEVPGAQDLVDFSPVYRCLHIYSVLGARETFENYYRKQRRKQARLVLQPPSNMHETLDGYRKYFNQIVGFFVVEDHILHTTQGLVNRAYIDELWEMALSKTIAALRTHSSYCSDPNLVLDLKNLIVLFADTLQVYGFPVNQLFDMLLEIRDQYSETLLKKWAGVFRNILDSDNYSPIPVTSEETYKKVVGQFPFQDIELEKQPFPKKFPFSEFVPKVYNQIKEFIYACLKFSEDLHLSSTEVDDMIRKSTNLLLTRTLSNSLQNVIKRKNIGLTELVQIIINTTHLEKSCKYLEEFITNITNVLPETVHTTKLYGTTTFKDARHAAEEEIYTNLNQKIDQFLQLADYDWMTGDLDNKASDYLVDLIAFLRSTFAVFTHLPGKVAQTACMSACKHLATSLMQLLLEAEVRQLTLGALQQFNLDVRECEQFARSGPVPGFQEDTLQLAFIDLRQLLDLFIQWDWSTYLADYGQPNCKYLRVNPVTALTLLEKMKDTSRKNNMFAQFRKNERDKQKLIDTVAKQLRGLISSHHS
UniProt O08537: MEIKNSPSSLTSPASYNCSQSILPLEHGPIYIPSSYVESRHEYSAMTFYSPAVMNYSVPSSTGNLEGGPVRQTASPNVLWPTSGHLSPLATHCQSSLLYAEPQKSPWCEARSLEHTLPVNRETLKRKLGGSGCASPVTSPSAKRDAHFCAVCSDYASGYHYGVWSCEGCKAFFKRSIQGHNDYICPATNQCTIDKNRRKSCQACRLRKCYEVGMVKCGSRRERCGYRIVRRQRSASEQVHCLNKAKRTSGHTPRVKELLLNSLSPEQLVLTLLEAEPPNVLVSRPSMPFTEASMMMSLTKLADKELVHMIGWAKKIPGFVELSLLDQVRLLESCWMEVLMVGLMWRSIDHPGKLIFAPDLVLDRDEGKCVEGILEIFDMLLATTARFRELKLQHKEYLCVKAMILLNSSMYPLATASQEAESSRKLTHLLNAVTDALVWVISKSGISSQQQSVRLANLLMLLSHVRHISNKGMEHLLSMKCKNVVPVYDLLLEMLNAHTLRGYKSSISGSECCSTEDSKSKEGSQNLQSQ

Biological target: Myc-tagged STAT3 (bait of the mass spectrometry experiment) (UniProt P42227)
Assay: affinity purification with mass spectrometry; Myc-STAT3 transfected into cells (mESC or HEK-293T), LIF-treated; c-Myc Tag IP/Co-IP kit, 10% SDS-PAGE, Coomassie, in-gel trypsin digestion of unique bands, ion-trap MS/MS

binding | Substance
binds | Sec15b (hit of the mass spectrometry experiment) (from UniProt A6H5Z3 1-810)
binds | estrogen receptor beta (ERβ) (from UniProt O08537 1-530)

These are yes or no findings as the source states them, for the method shown. Binding seen in cells or lysates may run through a third protein. A yes stands for co-enrichment or nearness to the bait. Other partners may have been found.
